Test results taken from PubChem BioAssay AID2685 (National Center for Advancing Translational Sciences (NCATS), 2010).
The whole screen tested about 320,000 compounds, of which about 2,100 (0.66%) were called active. Inconclusive means that the source gave no clear call. Such entries were picked first, then a sample of the others. Calls come from the whole dose curve; as a rule, active = well fitted inhibition curve with a large enough effect in the signal ratio, with a control signal flat (not every such curve was filed as active); inconclusive = small, poorly fitted or top-dose-only effect, or effect the other way, or a change in a side signal; inactive = flat fitted curve, though single readings scatter; the % refers to the signal ratio. Where the call is inconclusive, the potency comes from a doubtful curve fit.
% is set by controls: 0 for no effect and ±100 for the full control effect; potency is the fitted concentration of half-maximal effect.

Assay: qHTS Assay for Lipid Storage Modulators in Drosophila S3 Cells
Conditions: BODIPY lipid droplet fluorescence, 18-24 h, cells fed with added oleic acid; lipid storage change, negative = inhibition: at 46.1 µM (top of the series) unless noted
Summary of the method: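 Drosophila S3 cells loaded with oleic acid (400 uM, as added) and compounds at several concentrations; lipid droplets imaged by 488-nm laser-scanning cytometry, 500–530 nm intensity and object ratio to cell channel. Percent activity normalized to 20 uM Triacsin C.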
In the case of `CCN(C(=O)CSc1nc2ccc(OC)cc2[nH]1)C1CCS(=O)(=O)C1` (stereo unspecified), the lipid storage change, negative = inhibition is reported as “inactive”. In the case of `CCOC(=O)c1cc(-c2cc3ccccc3o2)nc2c1c(=O)[nH]c(=O)n2CCOC`, the lipid storage change, negative = inhibition is reported as inconclusive: 23.5%. For `Cc1cc(NS(=O)(=O)c2ccc(NC(=O)COc3ccccc3C(C)(C)C)cc2)no1`, the lipid storage change, negative = inhibition was inconclusive: 34.4%. In the case of `COc1ccc(C(=O)Cc2ccc(OC)c(OC)c2)cc1`, the lipid storage change, negative = inhibition is reported as inconclusive: 77.5%. With `Cc1nc(N2CCN(C(=O)CCC(=O)O)CC2)c2c(C)c(C)sc2n1` the lipid storage change, negative = inhibition was inconclusive: -7.4%. With `O=C(CSc1ccc([N+](=O)[O-])cc1)OCC(=O)N1CCCC1=O` the lipid storage change, negative = inhibition was inconclusive: 13.2%. With `CCc1ccccc1N1CC(C(=O)Nc2cc(C)on2)CC1=O` (stereo unspecified) the lipid storage change, negative = inhibition was inconclusive: -23.8%. For `CN1C(=O)C2(c3ccccc31)c1c(oc3ccccc3c1=O)C(=O)N2CCCO` (stereo unspecified), the lipid storage change, negative = inhibition was inconclusive: 2.74%. With `O=C(NCC(=O)N1CCN(c2ccc(C(F)(F)F)cn2)CC1)c1ccc(Br)o1` the lipid storage change, negative = inhibition was inconclusive: -32.8%. With `CN(CC(=O)Nc1c(Cl)cccc1Cl)C(=O)CCc1nc2sc3c(c2c(=O)[nH]1)CCCC3` the lipid storage change, negative = inhibition was inconclusive: 17.9%. For `CC(=O)c1c(C)nn(CC(=O)NC2CCCN(Cc3ccc(CC(C)C)cc3)C2)c1C` (stereo unspecified), the lipid storage change, negative = inhibition was inconclusive: -10.4%. For `Cc1ccccc1NC(=O)CSc1nnc(C)c2ccccc12`, the lipid storage change, negative = inhibition was inconclusive: -4.82%. In the case of `CC(C)NC(=O)c1c(CSc2ccccc2)noc1C(=O)NCc1ccccc1`, the lipid storage change, negative = inhibition is reported as inconclusive: 22.5%. For `COC(C[C@@H]1O[C@@H]1C(=O)COCc1ccccc1)OC`, the lipid storage change, negative = inhibition was inconclusive: -10.8%. For `C[C@H](NC(=O)c1nc[nH]c1C(=O)NCc1ccc(CNC(=O)OC(C)(C)C)cc1)C(=O)OC(C)(C)C`, the lipid storage change, negative = inhibition was inconclusive: 3.59%. With `O=C1OCCN1c1c(-c2ccccc2)c(-c2cccs2)nc2c(-c3ccccc3)cccc12` the Potency was inconclusive: 29.1 µM [falling, single point]. With `CN(C)C1=NCCN1CCC1CCCCC1` the Potency was inconclusive: 29.1 µM [activator, single point]. With `O=C(O)CCc1ccc(-c2ccc(Br)cc2)n1Cc1ccco1` the Potency was active: 6.51 µM. For `O=C(COC(=O)c1cc(Br)ccc1O)NNC(=O)c1cccs1`, the lipid storage change, negative = inhibition was inconclusive: 2.97%. In the case of `Cn1cc(C(=O)c2ccc(Cl)cc2Cl)cc1C(=O)N/N=C(\N)COc1ccc(Cl)cc1`, the lipid storage change, negative = inhibition is reported as inconclusive: 12.7%. With `O=C1CC(c2ccccc2)C(C(=O)O)N1` (stereo unspecified) the Potency was inconclusive: 6.51 µM [falling, single point]. In the case of `CC1=NN(C(=O)COc2cc(C)ccc2C(C)C)C(O)(c2ccccc2)C1` (stereo unspecified), the lipid storage change, negative = inhibition is reported as inconclusive: -1.01%. For `CCOc1ccc(CCNC(=O)CN2CCN(Cc3ccc(F)cc3)C2=O)cc1OCC`, the Potency was inconclusive: 0.366 µM [falling, full curve]. With `C[N+]1=C(/C=C/Nc2ccccc2Cl)C(C)(C)c2ccccc21` the Potency was inconclusive: 18.4 µM [falling, single point]. In the case of `CC[n+]1c(/C=C/N(C)c2ccccc2)oc2ccc(Cl)cc21`, the Potency is reported as inconclusive: 29.1 µM [falling, single point]. For `CCCn1c(/C=C/c2cc[n+](C)cc2)nc2ccccc21`, the lipid storage change, negative = inhibition was inconclusive: 1.12%. In the case of `Cc1onc(-c2ccccc2)c1C(=O)N1CCN(c2ccccc2F)CC1`, the lipid storage change, negative = inhibition is reported as inconclusive: -114%. With `O=C(NC(=O)N1CCN(c2ccccc2F)CC1)c1ccccc1` the lipid storage change, negative = inhibition was inconclusive: 20.7%. For `O=C1C(Cl)=C(N2CCCC2)C(=O)N1c1ccccc1F`, the Potency was active: 1.46 µM. In the case of `COc1ccc(-c2ccc(SCC(=O)c3cccs3)nn2)cc1OC`, the lipid storage change, negative = inhibition is reported as inconclusive: 20.1% [at 9.22 µM]. For `CN(C)S(=O)(=O)c1ccc(C(=O)Nc2ccc3c(c2)CCC3)cc1`, the Potency was inconclusive: 16.4 µM [falling, single point]. In the case of `O=C(O)CCSc1ccc2ccccc2n1`, the lipid storage change, negative = inhibition is reported as inconclusive: -2.23%. For `O=C(Nc1nnc(SCc2ccccc2Cl)s1)C1COc2ccccc2O1` (stereo unspecified), the lipid storage change, negative = inhibition was inconclusive: 73.6%. For `O=C(O)Cn1c(SCCOc2ccc(Cl)cc2)nc2ccccc21`, the Potency was inconclusive: 18.4 µM [activator, partial curve]. With `Cc1ccc(S(=O)(=O)N2CCCCC2)cc1NC(=O)C1CC(=O)N(Cc2ccccc2)C1` (stereo unspecified) the lipid storage change, negative = inhibition was inconclusive: -21.6%. For `C[n+]1cn(Cc2ccc(C#N)cc2)c2ccccc21`, the lipid storage change, negative = inhibition was inconclusive: -6.9%. In the case of `O=C(CN(C(=O)c1ccccc1Cl)C1CCCCC1)Nc1ccc(Cl)c([N+](=O)[O-])c1`, the lipid storage change, negative = inhibition is reported as inconclusive: -5.45%. With `COC(=O)c1ccc2ccn(CC(=O)NC(C)C)c2c1` the lipid storage change, negative = inhibition was inconclusive: 39.4%. In the case of `O=C(COC(=O)[C@H](Cc1c[nH]c2ccccc12)NC(=O)c1cccs1)NCc1ccccc1`, the Potency is reported as inconclusive: 29.1 µM [falling, single point]. For `CC(C)(O)C#Cc1ccc(CN2CCC(CO)(CCc3ccccc3)CC2)cc1`, the lipid storage change, negative = inhibition was inconclusive: -1.95%. For `O=C(CCN1C(=O)C2C3C=CC(C3)C2C1=O)Nc1nccs1` (stereo unspecified), the lipid storage change, negative = inhibition was inconclusive: 12.7%. For `CN(c1ccc(C(=O)NC2CC3CCC2C3)cc1)S(C)(=O)=O` (stereo unspecified), the lipid storage change, negative = inhibition was inconclusive: -83.8%. For `CC(=O)c1ccc(S(=O)(=O)N2CCn3cccc3C2C)cc1` (stereo unspecified), the lipid storage change, negative = inhibition was inconclusive: 6.93%. For `Cc1[nH]n(-c2ccccc2)c(=O)c1C=Nc1ccc(S(=O)(=O)N(C)C)cc1`, the lipid storage change, negative = inhibition was inconclusive: 29.4%. In the case of `Cc1ccc(S(=O)(=O)Cn2nnnc2C(CC(C)C)N2CCC(C(N)=O)CC2)cc1` (stereo unspecified), the Potency is reported as inconclusive: 23.1 µM [falling, single point]. With `CCOC(CNC(=O)c1ccc2c(c1)nc(C)n2-c1cccc(F)c1)OCC` the lipid storage change, negative = inhibition was inconclusive: 13%. In the case of `O=C(OCC(=O)N1CCCC1=O)c1cc2ccccc2o1`, the lipid storage change, negative = inhibition is reported as inconclusive: 8.75%. For `O=C(NCCO)C(=O)NCC1CCCN1S(=O)(=O)c1cccs1` (stereo unspecified), the lipid storage change, negative = inhibition was “inconclusive”. In the case of `Cn1cnnc1SCC(=O)Nc1ccccc1C(=O)NC1CCCC1`, the lipid storage change, negative = inhibition is reported as inconclusive: 6.63%. With `O=[N+]([O-])c1cccc(NC(=S)N2CCc3ccccc32)c1` the Potency was inconclusive: 0.13 µM [falling, full curve, poor fit]. For `Cc1cccc(N2CCN(C(=O)c3nn(C)c4c3CS(=O)(=O)c3ccccc3-4)CC2C)c1` (stereo unspecified), the lipid storage change, negative = inhibition was inconclusive: 53.6%.
